Data as given in PubChem BioAssay AID1259276 (Sanger Institute, 2017)

Assay: 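Find kinases whose silencing cuts viability alone or combined with BYL719, cetuximab or trametinib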 (primary screen)
Cells: human C2BBe1 colorectal cancer cells
Reagents: siRNA pool against human genes
Treatment: DMSO vehicle, or one anchor drug: BYL719 at 1 µM, cetuximab at 5 µg/ml, or trametinib at 10 nM; exposure length not stated
Measurement: 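Cell viability as a fraction of non-targeting control wells, mean of replicates, also as a control-based robust z-score, plus a synergy score for each anchor drug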
Reading the numbers: viability robust z-score, siRNA alone and viability vs control, siRNA alone: higher = more viable cells after knock-down
Call rule: 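Called essential when knock-down alone gives a viability robust z-score below -3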
Meaning of the calls: active = essential (siRNA alone); inactive = no change (siRNA alone)
The deposit covers 794 reagents; this is an unselected part. Of all reagents, 24 (3%) are marked active. 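Calls come only from the siRNA-alone arm; drug synergy scores do not affect them.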 No viability above 1 is reported: the scale is capped. Further read-outs or replicates are left out here. The record does not give: the amount of reagent, the time to read-out.

{"Gene": "STAG2", "viability robust z-score, siRNA alone": 0, "viability vs control, siRNA alone": 0.97, "call": "inactive"}
{"Gene": "THNSL1", "viability robust z-score, siRNA alone": 0.472, "viability vs control, siRNA alone": 1, "call": "inactive"}
{"Gene": "DGKK", "viability robust z-score, siRNA alone": 0.472, "viability vs control, siRNA alone": 1, "call": "inactive"}
{"Gene": "MAP4K4", "viability robust z-score, siRNA alone": 0.472, "viability vs control, siRNA alone": 1, "call": "inactive"}
{"Gene": "XYLB", "viability robust z-score, siRNA alone": 0.472, "viability vs control, siRNA alone": 1, "call": "inactive"}
{"Gene": "IRAK3", "viability robust z-score, siRNA alone": 0.472, "viability vs control, siRNA alone": 1, "call": "inactive"}
{"Gene": "RIOK3", "viability robust z-score, siRNA alone": 0.472, "viability vs control, siRNA alone": 1, "call": "inactive"}
{"Gene": "PRKACA", "viability robust z-score, siRNA alone": 0.121, "viability vs control, siRNA alone": 0.978, "call": "inactive"}
{"Gene": "CHKB", "viability robust z-score, siRNA alone": 0.472, "viability vs control, siRNA alone": 1, "call": "inactive"}
{"Gene": "AK1", "viability robust z-score, siRNA alone": 0.472, "viability vs control, siRNA alone": 1, "call": "inactive"}
{"Gene": "TLK1", "viability robust z-score, siRNA alone": 0.329, "viability vs control, siRNA alone": 0.991, "call": "inactive"}
{"Gene": "MAPK9", "viability robust z-score, siRNA alone": 0.472, "viability vs control, siRNA alone": 1, "call": "inactive"}
{"Gene": "ERN1", "viability robust z-score, siRNA alone": -0.168, "viability vs control, siRNA alone": 0.96, "call": "inactive"}
{"Gene": "MYO3A", "viability robust z-score, siRNA alone": 0.472, "viability vs control, siRNA alone": 1, "call": "inactive"}
{"Gene": "ALK", "viability robust z-score, siRNA alone": 0.472, "viability vs control, siRNA alone": 1, "call": "inactive"}
{"Gene": "SRPK3", "viability robust z-score, siRNA alone": 0.472, "viability vs control, siRNA alone": 1, "call": "inactive"}
{"Gene": "BRSK1", "viability robust z-score, siRNA alone": 0.472, "viability vs control, siRNA alone": 1, "call": "inactive"}
{"Gene": "MARK3", "viability robust z-score, siRNA alone": 0.472, "viability vs control, siRNA alone": 1, "call": "inactive"}
{"Gene": "NME5", "viability robust z-score, siRNA alone": 0.472, "viability vs control, siRNA alone": 1, "call": "inactive"}
{"Gene": "MAP2K1", "viability robust z-score, siRNA alone": 0.472, "viability vs control, siRNA alone": 1, "call": "inactive"}
{"Gene": "SMAD2", "viability robust z-score, siRNA alone": 0.472, "viability vs control, siRNA alone": 1, "call": "inactive"}
{"Gene": "IPMK", "viability robust z-score, siRNA alone": 0.242, "viability vs control, siRNA alone": 0.985, "call": "inactive"}
{"Gene": "DLG1", "viability robust z-score, siRNA alone": -0.641, "viability vs control, siRNA alone": 0.93, "call": "inactive"}
{"Gene": "MAPK11", "viability robust z-score, siRNA alone": 0.472, "viability vs control, siRNA alone": 1, "call": "inactive"}
{"Gene": "EFNA4", "viability robust z-score, siRNA alone": -1.75, "viability vs control, siRNA alone": 0.86, "call": "inactive"}
{"Gene": "EPHA5", "viability robust z-score, siRNA alone": -1.16, "viability vs control, siRNA alone": 0.897, "call": "inactive"}
{"Gene": "MLKL", "viability robust z-score, siRNA alone": 0.472, "viability vs control, siRNA alone": 1, "call": "inactive"}
{"Gene": "CERT1", "viability robust z-score, siRNA alone": 0.472, "viability vs control, siRNA alone": 1, "call": "inactive"}
